Results are given in words; binding and its absence hold for the method and conditions named. For part of these data: Binding seen in cells or lysates may run through a third protein. Some results given as binding are weak or reduced against the parent protein; the word gives no strength.
What was measured:
[1] = molecular target: NS5A-ΔPSTCD fusion protein (WT) expressed from SGR-ΔPSTCD-neo-JFH-1 (hepatitis C virus, genotype 2a, isolate JFH-1) (UniProt Q99IB8); assay: phage display library screen; NS5A-ΔPSTCD purified from SGR-harbouring cell lysates on streptavidin-magnetic beads used to screen a phage library expressing all 296 human SH3 domains; only the target purified
[2] = molecular target: Cas ligand with multiple SH3 domains (CMS) with a C-terminal PinPoint tag (UniProt Q9Y5K6); assay: co-IP
[3] = molecular target: YFP-tagged Grb2 (UniProt P62993); assay: co-IP

The chains behind the UniProt entries cited, without tags or fusion partners. Residues count along the entry.
UniProt Q9Y5K6: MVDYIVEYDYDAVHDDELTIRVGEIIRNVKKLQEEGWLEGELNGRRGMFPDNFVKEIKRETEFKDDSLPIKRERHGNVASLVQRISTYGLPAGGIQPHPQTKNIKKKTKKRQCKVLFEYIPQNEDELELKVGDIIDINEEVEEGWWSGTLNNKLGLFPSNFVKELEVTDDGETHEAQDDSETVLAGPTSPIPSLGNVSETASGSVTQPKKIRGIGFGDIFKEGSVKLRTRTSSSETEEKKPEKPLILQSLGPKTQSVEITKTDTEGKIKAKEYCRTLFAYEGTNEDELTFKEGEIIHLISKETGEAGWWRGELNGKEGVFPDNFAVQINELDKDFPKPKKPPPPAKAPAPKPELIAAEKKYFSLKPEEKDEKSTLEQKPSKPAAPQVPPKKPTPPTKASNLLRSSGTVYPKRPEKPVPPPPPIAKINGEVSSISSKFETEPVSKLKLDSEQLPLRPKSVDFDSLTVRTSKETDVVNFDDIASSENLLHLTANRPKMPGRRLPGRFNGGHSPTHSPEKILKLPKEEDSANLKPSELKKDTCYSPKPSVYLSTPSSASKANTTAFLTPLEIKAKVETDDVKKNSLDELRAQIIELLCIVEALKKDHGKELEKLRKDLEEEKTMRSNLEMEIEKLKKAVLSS
UniProt P62993: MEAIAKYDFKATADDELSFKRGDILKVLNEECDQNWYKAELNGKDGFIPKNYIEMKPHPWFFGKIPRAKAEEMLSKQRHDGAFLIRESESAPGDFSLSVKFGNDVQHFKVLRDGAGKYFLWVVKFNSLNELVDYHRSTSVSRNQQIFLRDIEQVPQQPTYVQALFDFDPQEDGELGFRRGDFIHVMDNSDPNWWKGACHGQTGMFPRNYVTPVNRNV
UniProt P07948, residues 63-123: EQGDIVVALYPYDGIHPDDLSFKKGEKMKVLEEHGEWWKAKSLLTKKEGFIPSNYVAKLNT
UniProt P08631, residues 78-138: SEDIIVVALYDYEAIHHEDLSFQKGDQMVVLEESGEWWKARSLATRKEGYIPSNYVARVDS

Molecule	binding [1]	binding [2]	binding [3]
SH3 domain of the Src kinase Lyn displayed on phage (from UniProt P07948 63-123) (domain or fragment)	binds		
HCV NS5A protein (WT) expressed from SGR-neo-JFH-1 (from UniProt Q99IB8 1977-2442)		binds	binds
SH3 domain of the Src kinase Hck displayed on phage (from UniProt P08631 78-138) (domain or fragment)	binds		
SH3 domain of Amphiphysin II displayed on phage (domain or fragment, UniProt O00499 520-593) GFMFKVQAQHDYTATDTDELQLKAGDVVLVIPFQNPEEQDEGWLMGVKESDWNQHKELEKCRGVFPENFTERVP	binds		
SH3 domain of mixed-lineage kinase (Mlk3) displayed on phage (domain or fragment, UniProt Q16584 41-105) YANPVWTALFDYEPSGQDELALRKGDRVEVLSRDAAISGDEGWWAGQVGGQVGIFPSNYVSRGGG	binds		

From paper PMC4681064
